Experimental data as given in US12440519B2 (Iowa State University Research Foundation, Inc., priority 2017, dated 2025).
Where a name gives a salt, the structure may show the parent alone.

Assay: Recovery from spiked sSIM by UHPLC-ECD

With CC(C)NC[C@H](O)c1ccc(O)c(O)c1 [isoproterenol, (−)-Isoproterenol hydrochloride] the “% Agreement” value (1 μg spiked in sSIM) was 81.00%, the “% Agreement” value (10 μg spiked in sSIM) was 92.20% and the “Amount Recovered” value (10 μg spiked in sSIM) was 9.22 µg. The “% Agreement” value (100 μg spiked in sSIM) was 90.63% and the “Amount Recovered” value (100 μg spiked in sSIM) was 90.63 µg.
